Drawing on PubChem BioAssay AID256 (DTP/NCI, 2004), this text covers survivor count and T/C for 30 compounds.

This experiment deals with CD2F1 mice, L1210 leukemia ip, survival T/C. Put plainly: NCI In Vivo Anticancer Drug Screen. Data for tumor model L1210 Leukemia (intraperitoneal) in CD2F1 (CDF1) mice. The settings on record: higher T/C = longer survival. The method in brief: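 Ratio T/C, where T is the treated-group value and C the vehicle-dosed control value, from mice implanted with a transplantable tumor.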

Setting [1] is: T/C endpoint: mean survival time, dose: 400.0 mg/kg/injection, schedule: Q01DX009 (ip), vehicle: saline with Tween-80.
Where [2] appears, read: T/C endpoint: mean survival time, dose: 200.0 mg/kg/injection, schedule: Q04DX003 (ip), vehicle: saline with Tween-80.
Setting [3] is: T/C endpoint: mean survival time, dose: 50.0 mg/kg/injection, schedule: Q01DX009 (ip), vehicle: Klucel (hydroxypropylcellulose) (HPC).
Where [4] appears, read: T/C endpoint: mean survival time, dose: 100.0 mg/kg/injection, schedule: Q01DX009 (ip), vehicle: Klucel (hydroxypropylcellulose) (HPC).
Where [5] appears, read: T/C endpoint: mean survival time, dose: 200.0 mg/kg/injection, schedule: Q01DX009 (ip), vehicle: Klucel (hydroxypropylcellulose) (HPC).
The mark [6] stands for this setting: T/C endpoint: mean survival time, dose: 400.0 mg/kg/injection, schedule: Q04DX003 (ip), vehicle: saline with Tween-80.
Setting [7] is: T/C endpoint: mean survival time, dose: 100.0 mg/kg/injection, schedule: Q01DX009 (ip), vehicle: saline with Tween-80.
[8] abbreviates: T/C endpoint: mean survival time, dose: 200.0 mg/kg/injection, schedule: Q01DX009 (ip), vehicle: saline with Tween-80.
The mark [9] stands for this setting: T/C endpoint: mean survival time, dose: 400.0 mg/kg/injection, schedule: Q04DX002 (ip), vehicle: saline with Tween-80.

The list is a part of this screen's results and no random one: it is rich in T/C values a quarter to a half above the control, in often repeated tests (any T/C) and in doses without a T/C. Further doses and runs are listed elsewhere. T/C is the treated group as % of the vehicle group. Some doses have a count of surviving animals in place of a T/C: the source holds a T/C of zero for them, seemingly a mark for toxic or unscored doses. Some survivor counts are full or nearly so, which does not show that the dose was tolerated: the source hardly ever lists a survival T/C far under the control, and the zero likely stands for such cases as well. Counts of survivors are from the toxicity check (mostly the fifth day) where no day follows; animals may have died later. Schedule codes are those of the source, read here as Q, the interval in days (D) or hours (H), X, the number of doses. Some entries were tested several times; the values are given in rising order. For survival time, the PubChem record calls one and a half times the control and up active, and a quarter to a half above the control has no call in these data; cut-offs in other NCI protocols can differ. Counts like (3×) say how often a value occurs here. Some schedule codes hold Z or #, which are not explained here.

Consider `CCOC(=O)Nc1cc(Nc2ccccc2)c(N)c(N)n1`, for which, under “T/C endpoint: mean survival time, dose: 400.0 mg/kg/injection, schedule: Q01DX001 (ip), vehicle: saline”, the survivor count is given as 0 of 6.

On to `CCOC(=O)Nc1cc(F)c(F)cc1F`, for which the survivor count under setting [1] is 0 of 6.

Regarding `Cn1c(=O)c2c(nc(NCCOC(=S)S)n2C)n(C)c1=O`, the survivor count by setting is: (T/C endpoint: mean survival time, dose: 100.0 mg/kg/injection, schedule: Q01DX005 (ip), vehicle: distilled water + Tween-80) 0 of 6; (T/C endpoint: mean survival time, dose: 200.0 mg/kg/injection, schedule: Q01DX005 (ip), vehicle: distilled water + Tween-80) 0 of 6.

With `C=CC1CC=CCC1` (stereo not drawn), the survivor count under setting [1] is recorded as 2 of 6.

With `CC1(CNC(=O)C(=O)NCC2(C)CO2)CO1` (stereo not drawn), the T/C reads like this: (T/C endpoint: mean survival time, dose: 10.0 mg/kg/injection, schedule: Q01DX010 (ip), vehicle: saline) 136 % of control; (T/C endpoint: mean survival time, dose: 44.0 mg/kg/injection, schedule: Q01DX Z (ip), vehicle: saline) 130 % of control; (T/C endpoint: mean survival time, dose: 66.0 mg/kg/injection, schedule: Q01DX Z (ip), vehicle: saline) 140 % of control; (T/C endpoint: mean survival time, dose: 100.0 mg/kg/injection, schedule: Q01DX Z (ip), vehicle: saline) 148 % of control. Also, the survivor count (T/C endpoint: mean survival time, dose: 338.0 mg/kg/injection, schedule: Q01DX010 (ip), vehicle: saline) is listed as 0 of 6.

For the compound `N=c1nc2c3ccccc3nnn2c2ccccc12`, where the note is “T/C endpoint: mean survival time, dose: 200.0 mg/kg/injection, schedule: Q01DX001 (ip), vehicle: Klucel (hydroxypropylcellulose) (HPC)”, the survivor count is given as 1 of 3.

Regarding `N#CCC(O)(/C=C/c1ccccc1)c1ccccc1` (stereo not drawn), under setting [2], the survivor count is 6 of 6.

As for `Cc1c(N)nc(C(CC(N)=O)NCC(N)C(N)=O)nc1C(=O)NC(C(=O)NC(C)C(O)CC(=O)NC(C(=O)NC(OC1OC(C)C(N)C(O)C1O)C(O)c1nc(-c2nc(C(=O)NCCCC(N)CC(=O)NCCCNCCCCN)cs2)cs1)C(C)O)C(OC1OC(CO)C(O)C(O)C1OC1OC(CO)C(O)C(OC(N)=O)C1O)c1cnc[nH]1` (stereo not drawn), the survivor count (T/C endpoint: mean survival time, dose: 32.0 mg/kg/injection, schedule: Q01DX009 (ip), vehicle: saline) is 6 of 6.

Turning to `Nc1nc(-c2cccc([N+](=O)[O-])c2)c(N=Nc2ccc([N+](=O)[O-])cc2)s1`, the survivor count (T/C endpoint: mean survival time, dose: 400.0 mg/kg/injection, schedule: Q01DX001 (ip), vehicle: saline with Tween-80) is listed as 6 of 6.

`O=c1cc[nH]cc1[N+](=O)[O-]`: the survivor count (T/C endpoint: mean survival time, dose: 400.0 mg/kg/injection, schedule: Q04DX003 (ip), vehicle: saline sonified) is 3 of 6.

Consider `O=C1CC2C3C=CC4C3CC2C14` (stereo not drawn), for which, for the setting “T/C endpoint: mean survival time, dose: 300.0 mg/kg/injection, schedule: Q01DX001 (ip), vehicle: saline with Tween-80”, the survivor count is on record as 1 of 6.

In the case of `COC12C(COC(N)=O)C3=C(C(=O)C(C)=C(NC(C)C)C3=O)N1CC1NC12` (stereo not drawn), the T/C was 96, 98, 108, 147 % of control (T/C endpoint: mean survival time, dose: 3.0 mg/kg/injection, schedule: Q01DX001 (ip), vehicle: water); 100, 102 (2×), 183 % of control (T/C endpoint: mean survival time, dose: 6.0 mg/kg/injection, schedule: Q01DX001 (ip), vehicle: water); 109, 114, 120, 232 % of control (T/C endpoint: mean survival time, dose: 12.0 mg/kg/injection, schedule: Q01DX001 (ip), vehicle: water); 100, 120, 123, 129 % of control (T/C endpoint: mean survival time, dose: 24.0 mg/kg/injection, schedule: Q01DX001 (ip), vehicle: water). Moreover, under “T/C endpoint: mean survival time, dose: 48.0 mg/kg/injection, schedule: Q01DX001 (ip), vehicle: water”, the survivor count is 3 of 6 and 6 of 6.

For the compound `C[n+]1ccc(/C=C\c2ccc(N(CCCl)CCCl)cc2)c2ccccc21`, the survivor count was 0 of 3 under setting [3], 0 of 3 under setting [4] and 0 of 3 under setting [5].

With `COc1cc(C2CNCc3cc(O)c(OC)cc32)ccc1O` (stereo not drawn), the survivor count (T/C endpoint: mean survival time, dose: 300.0 mg/kg/injection, schedule: Q01DX001 (ip), vehicle: saline) is recorded as 0 of 6.

With `COC[C@H]1OC(=O)c2coc3c2[C@@]1(C)C1=C(C3=O)[C@@H]2CCC(=O)[C@@]2(C)C[C@H]1OC(C)=O`, the survivor count (T/C endpoint: mean survival time, dose: 2.5 mg/kg/injection, schedule: Q01DX009 (ip), vehicle: saline with Tween-80) is 2 of 6; the survivor count (T/C endpoint: mean survival time, dose: 5.0 mg/kg/injection, schedule: Q01DX009 (ip), vehicle: saline with Tween-80) is 2 of 6; the survivor count (T/C endpoint: mean survival time, dose: 10.0 mg/kg/injection, schedule: Q01DX009 (ip), vehicle: saline with Tween-80) is reported as 0 of 6.

On to `Cc1cc(OC(=O)N2CCCCC2)c(C(C)C)cc1[N+](C)(C)C`, for which the survivor count by setting is: (T/C endpoint: mean survival time, dose: 0.13 mg/kg/injection, schedule: Q01DX009 (ip), vehicle: saline) 2 of 6; (T/C endpoint: mean survival time, dose: 0.25 mg/kg/injection, schedule: Q01DX009 (ip), vehicle: saline) 3 of 6; (T/C endpoint: mean survival time, dose: 0.5 mg/kg/injection, schedule: Q04DX003 (ip), vehicle: saline with Tween-80) 3 of 6; (T/C endpoint: mean survival time, dose: 1.0 mg/kg/injection, schedule: Q04DX003 (ip), vehicle: saline with Tween-80) 0 of 6; (T/C endpoint: mean survival time, dose: 2.0 mg/kg/injection, schedule: Q04DX003 (ip), vehicle: saline with Tween-80) 0 of 6.

Consider `N#Cc1cc(Cl)c(OCc2ccccc2)c(Cl)c1`, for which the survivor count (T/C endpoint: mean survival time, dose: 200.0 mg/kg/injection, schedule: Q01DX001 (ip), vehicle: saline with Tween-80) is 6 of 6.

Regarding `Cc1cc(NC(C)CN(C)C)nc(/N=C(\N)Nc2ccc(Cl)c(Cl)c2)n1` (stereo not drawn), the survivor count is listed as 2 of 6 under setting [2] and 0 of 6 under setting [6].

As to `O=C(CSC1=NCCN1)c1ccccc1`, the survivor count is given as 0 of 6 under setting [7], 0 of 6 under setting [8] and 0 of 6 under setting [1].

Take `c1cc(-n2nnc3cnccc32)ccn1`: for the setting “T/C endpoint: mean survival time, dose: 100.0 mg/kg/injection, schedule: Q04DX003 (ip), vehicle: saline”, the survivor count is listed as 1 of 6.

As for `O=c1ccn(C2OC(CO)C(O)C2O)c(=O)[n]1[Hg][c]1ccccc1` (stereo not drawn), the T/C by setting is: (T/C endpoint: median survival time, dose: 0.79 mg/kg/injection, schedule: Q01DX005 (ip), vehicle: saline) 128 % of control; (T/C endpoint: median survival time, dose: 1.56 mg/kg/injection, schedule: Q01DX005 (ip), vehicle: saline) 131 % of control. In addition, the survivor count (T/C endpoint: median survival time, dose: 12.5 mg/kg/injection, schedule: Q01DX005 (ip), vehicle: saline) was 0 of 6 and 3 of 6.

Take `CC(=O)Nc1ccc([N+](=O)[O-])c(C(F)(F)F)c1`: the survivor count under setting [6] was 2 of 6.

Consider `CCCCNC(C)(C)C(SSC(c1ccc(Cl)cc1)C(C)(C)NCCCC)c1ccc(Cl)cc1` (stereo not drawn), for which the survivor count reads like this: (T/C endpoint: mean survival time, dose: 50.0 mg/kg/injection, schedule: Q01DX009 (ip), vehicle: saline with Tween-80) 5 of 6; under setting [7], 3 of 6; under setting [2], 5 of 6; under setting [6], 0 of 6.

`O=S(=O)(/C=C\S(=O)(=O)c1ccccc1)c1ccccc1`: the survivor count reads like this: under setting [3], 5 of 6; under setting [4], 1 of 6; under setting [5], 0 of 6; (T/C endpoint: mean survival time, dose: 400.0 mg/kg/injection, schedule: Q01DX009 (ip), vehicle: Klucel (hydroxypropylcellulose) (HPC)) 0 of 6.

In the case of `COc1cc2c(cc1OC)C(CC(C)C)=[N+](C)CC2`, the survivor count (T/C endpoint: mean survival time, dose: 200.0 mg/kg/injection, schedule: Q04DX002 (ip), vehicle: saline with Tween-80) is 3 of 3 and the survivor count under setting [9] is reported as 1 of 3.

As to `C1=C\CCCCCCCC/1`, the survivor count under setting [7] was 1 of 6, the survivor count under setting [8] is recorded as 1 of 6, the survivor count under setting [2] is reported as 2 of 6 and the survivor count under setting [1] was 0 of 6.

`[Br][Pt+2][Br].[NH-]C(c1ccccc1)C([NH-])c1ccccc1` (stereo not drawn): the T/C reads like this: (T/C endpoint: mean survival time, dose: 25.0 mg/kg/injection, schedule: Q04DX003 (ip), vehicle: saline with Tween-80) 128 % of control; (T/C endpoint: mean survival time, dose: 50.0 mg/kg/injection, schedule: Q04DX003 (ip), vehicle: saline with Tween-80) 137 % of control.

With `O=C(O)c1cccc(F)c1Cl`, the survivor count under setting [9] is reported as 2 of 3.

For the compound `Cn1c(=O)sc2ccccc21`, the survivor count under setting [9] is reported as 1 of 3.

As to `Cn1c(=O)c2c(nc(Cl)n2Cc2ccccc2)n(C)c1=O`, the survivor count (T/C endpoint: mean survival time, dose: 200.0 mg/kg/injection, schedule: Q01DX005 (ip), vehicle: saline with Tween-80) was 0 of 6.
